Test results reported in PubChem BioAssay AID2685 (National Center for Advancing Translational Sciences (NCATS), 2010).
The list shows a part of the results. Further columns of the screen follow, without active or inactive calls. The list favours compounds with an active or inconclusive main result. Potencies come from curve fits of mixed quality, noted in brackets.

Test: qHTS Assay for Lipid Storage Modulators in Drosophila S3 Cells;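 for cell number change: cells counted by Cell Tracker Red CMTPX staining in the red channel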
Conditions: BODIPY lipid droplet fluorescence, 18-24 h; for cell number change: measured here: cell count max response, cells fed with added oleic acid
Procedure, shortened: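 Laser-scanning cytometry quantifies lipid droplet accumulation (500–530 nm total intensity; droplet/cell object ratio) in oleic acid-fed (400 uM added) Drosophila S3 cells treated with a concentration series. 20 uM Triacsin C defined 100% inhibition.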

[1] = measured here: cell number channel AC50, cells fed with added oleic acid
[2] = measured here: lipid fluorescence (Fed channel) AC50, cells fed with added oleic acid

Row | Structure (SMILES) | cell number change | AC50 [1] | AC50 [2]
1 | COc1ccc(C)cc1NC(=O)N1CCC(CO)(CC2CCCCO2)CC1 (stereo not drawn) | 29.2% | 0.00651 µM [rising, full curve, poor fit] | –
2 | O=C(Nc1ccc(Br)c(Cl)c1)C1CC1 | 24% | – | 2.31 µM [falling, partial curve]
3 | Cc1cccc(N(CC(=O)NC(C)(C)C)C(=O)CCC(=O)Nc2nccs2)c1 | 0.787% | – | –
4 | CC(NC(=O)OCc1ccccc1)C(=O)OCN1C(=O)c2ccccc2C1=O (stereo not drawn) | 0.195% | – | 0.00517 µM [falling, full curve, poor fit]
5 | Cn1ccnc1SCC(=O)Nc1ccc2c(c1)OCCO2 | 10.3% | – | 5.8 µM [falling, full curve]
6 | N=C1C(c2nc3ccccc3s2)=C(O)CN1NC(=O)c1ccccc1[N+](=O)[O-] | -35.3% | 11.2 µM [falling, partial curve] | –
7 | CCCOC(=O)C1C2C=C[C@]3(CN(CCc4ccccc4)C(=O)[C@H]13)O2 (stereo partly drawn) | 8.9% | – | –
8 | Cc1nn(Cc2ccc([N+](=O)[O-])cc2)c(=O)n1-c1c(F)cccc1F | 71% | 0.411 µM [rising, partial curve] | –
9 | CN(C)CCC(=O)c1ccc(Cl)cc1 | -8.95% | – | 5.8 µM [falling, partial curve, poor fit]
10 | COc1ccc(NC(=O)CN(C)S(=O)(=O)c2cnc[nH]2)cc1 | -2.47% | – | 29.1 µM [rising, single point]
11 | COc1cccc(CN2CCN(S(=O)(=O)c3ccc(NC(C)=O)cc3)CC2)c1OC | -18% | – | 0.58 µM [falling, full curve]
12 | O=C(Nc1ccccc1N1CCOCC1)c1cccc(Oc2ccccc2)c1 | -14.5% | – | 0.447 µM [falling, single point]
13 | Cc1csc(/N=C/N(C)C)c1C#N | -47.4% | 18.4 µM [falling, single point] | 29.1 µM [falling, single point]
14 | O=C(CSc1nnc(-c2ccccc2)n1Cc1ccccc1)NNC(=O)c1ccccc1O | 22.6% | 0.731 µM [rising, full curve, poor fit] | 23.1 µM [rising, partial curve]
15 | Cc1ccc(NS(=O)(=O)c2cc(NC(=O)c3ccc4c(c3)NC(=O)CS4)ccc2Cl)c(C)c1 | 92.9% | 29.1 µM [rising, single point] | –
16 | O=C(CN1CCCC1)Nc1cccc(Cl)c1 | 25.7% | – | 8.2 µM [rising, partial curve, poor fit]
17 | COc1ccccc1NC(=S)N1CCCc2ccccc21 | 29.4% | – | 29.1 µM [rising, single point]
18 | COc1cc2c(cc1NC(=O)CSc1nccn1C)oc1ccccc12 | -57.1% | 23.1 µM [falling, single point] | 0.092 µM [rising, full curve, poor fit]
19 | C=CCN(c1ccc(Cl)cc1)S(=O)(=O)c1cccc(C(=O)OCC(=O)N(C)C)c1 | -24.1% | 0.116 µM [falling, full curve, poor fit] | 0.13 µM [falling, single point]

Limited to cell number change and AC50 [2] (3 entries from above):
Row | Structure (SMILES) | cell number change | AC50 [2]
1 | COc1ccc(C)cc1NC(=O)N1CCC(CO)(CC2CCCCO2)CC1 (stereo not drawn) | 29.2% | –
7 | CCCOC(=O)C1C2C=C[C@]3(CN(CCc4ccccc4)C(=O)[C@H]13)O2 (stereo partly drawn) | 8.9% | –
14 | O=C(CSc1nnc(-c2ccccc2)n1Cc1ccccc1)NNC(=O)c1ccccc1O | 22.6% | 23.1 µM [rising, partial curve]

More compounds.

Row | Structure (SMILES) | cell number change | AC50 [1] | AC50 [2]
20 | CCOc1ccc2nc(N(CCCN(C)C)C(=O)c3ccc4c(c3)CCCC4)sc2c1 | -1.05% | – | –
21 | O=C(OCc1ccc(Cl)c(Cl)c1)c1cccnc1Cl | -7.14% | – | 6.51 µM [falling, single point]
22 | CSc1nc2c(c(=O)[nH]c(=O)n2C)n1Cc1ccccc1 | -18.6% | – | 29.1 µM [rising, single point]
23 | Cc1ccc(S(=O)(=O)N2CCOCC2)cc1C(=O)OCC(=O)NCc1ccc2c(c1)OCO2 | -8.03% | – | 6.51 µM [rising, single point]
24 | CC1CCC(NC(=O)C2CCN(c3nc4ccccc4s3)CC2)CC1 (stereo not drawn) | 10.3% | – | 0.116 µM [rising, single point]
25 | Cc1ccc(NC(=O)CSc2nc(-c3ccco3)nc3cc(=O)[nH]n23)c(Cl)c1 | -7.08% | – | 29.1 µM [falling, partial curve, poor fit]
26 | CCCCn1nc(C(=O)O)ccc1=O | 10.2% | – | 0.0651 µM [falling, full curve, poor fit]
27 | O=C(CN1CCN(Cc2ccccc2)CC1)Nc1nnc(C(F)(F)F)s1 | 13.2% | – | 29.1 µM [rising, single point]
28 | O=C1CC(N2CCN(c3nc4ccccc4s3)CC2)C(=O)N1Cc1cccs1 (stereo not drawn) | 10.6% | – | 3.26 µM [rising, partial curve]
29 | COc1ccccc1-c1cc(C(F)(F)F)nc(S(=O)(=O)CCCC(=O)O)n1 | -84.4% | 6.51 µM [rising, single point] | 29.1 µM [falling, single point]
30 | NS(=O)(=O)c1ccc(CCNC(=O)CNC(=O)Cc2ccccc2)cc1 | 15.3% | – | 3.26 µM [rising, full curve]
31 | COc1cccc(C2=CC(=O)C[C@H](c3ccc(F)cc3)C2)c1 | 3.84% | – | –
32 | COc1ccc(C/C(C)=N/NC(=O)c2ccncc2)cc1 | 9.33% | – | 10.3 µM [falling, partial curve, poor fit]
33 | O=C(Nc1ccc(S(=O)(=O)Nc2ccccc2)cc1)C1CC1 | -2.27% | – | –
34 | Cc1cc(C)c(NC(=O)CSc2nnc(SCC(=O)Nc3c(C)cc(C)cc3C)n2N)c(C)c1 | 181% | 18.4 µM [rising, partial curve] | 6.51 µM [rising, single point]
35 | CCCCCc1c(C)nc(Nc2ccccc2)[nH]c1=O | -111% | 20.6 µM [falling, single point] | 29.1 µM [falling, single point]
36 | O=C(NCc1ccccn1)c1ccc(S(=O)(=O)Nc2ccccc2F)cc1 | -7.08% | – | 18.4 µM [rising, partial curve]
37 | COc1cccc(NC(=O)COC(=O)c2ccccc2C(=O)N(C)c2ccccc2)c1 | -4.71% | – | 0.13 µM [rising, partial curve, poor fit]
38 | OCCCCNc1cccc2ccccc12 | 25% | – | 3.66 µM [rising, single point]
